{
  "source": "patent US20160366882A1",
  "about": "“AGROCHEMICAL COMPOSITIONS FOR INDUCING ABIOTIC STRESS TOLERANCE” (VIB VZW, priority 2012, published 2016)",
  "assay_type_in_all_cases": "in vivo, Arabidopsis thaliana",
  "key": {"[1]": {"system": "catalase-2 mutant A. thaliana plantlets (cat2-2)", "test": "agar assay: rescue of cell death of catalase-2 mutants under photorespiratory conditions (Restricted Gas exchange Constant Light; RGCL)", "procedure": "FIG. 2: effect of 5 μM of compound 4 on the rescue of cell death of the catalase-2 mutant A. thaliana plantlets when grown under photorespiratory conditions. Photorespiratory conditions are, for example, as herein used, restricted-gas-exchange-constant light conditions. […] Photorespiration (Rp) is a major source of detrimental effects and yield losses in crop plants. Catalase is one of the crucial proteins in the Rp process since it provides the dissipation sink of photosynthetic excitation overload in the role of Rp as a photo-protective mechanism. Secondly, and as part of the same process, catalase provides effective defense against excessive hydrogen peroxide levels, without requiring additional energy from other sources. Catalase knock-out mutant plants thus provide an excellent tool to study the process of Rp (see Vandenabeele S et al., (2003) PNAS 100, 26, 16113-16118). In the disclosure, we developed a high-throughput screening assay by using a catalase-2 deficient plant. […] Fv/Fm is presented as a ratio of variable fluorescence (Fv) over the maximum fluorescence value (Fm). […] On a regular basis Fv/Fm was monitored for all wells, using a Walz Maxi PAM imager. Several days after transfer to constant light the individual wells were visually scored for cell death. […] Three persons scored independently, and only a consensus of ⅔ scores were maintained as positive hits. […]"}, "[2]": {"system": "wild-type and cat2-2 plants", "test": "growth of wild-type and cat2-2 plants under normal growth conditions (non-stress)", "settings": "5 μM; normal growth conditions (no high light); wild types and catalase mutants"}, "[3]": {"system": "wild-type A. thaliana plantlets (Col-0)", "test": "salt tolerance of wild-type plantlets under moderate salt stress", "settings": "5 μM, 200 mM NaCl"}},
  "note": "“Also recorded” adds a separate entry of the source. At least one structure is not confirmed: it was looked up by name or label, or the drawing left a doubt.",
  "data": [
    {"smiles": "COc1cc(NC(=O)C(C)Oc2ccc(Cl)cc2Cl)ccc1NC(=O)C(C)C", "note": "(stereo not shown) [compound 4]", "values": [
      {"measurement": "rescue of cell death of the cat2-2 mutant", "setting": "[1]; 5 μM, grown under photorespiratory conditions", "value": "pronounced effect; also recorded: rescues cell death"},
      {"measurement": "salvaging growth, photosynthetic efficiency and cell death caused by photorespiratory stress, compared with the other hits", "setting": "[1]; agar assay, versus the rest of the 35 hits, concentration not given", "value": "outcompeted all of the rest of the 35 compounds"},
      {"measurement": "growth / yield in non-stress conditions", "setting": "[2]", "value": "increased growth; also recorded: enhanced yield"},
      {"measurement": "tolerance to salt stress (growth under high salt)", "setting": "[3]", "value": "significance tolerance"}
    ]}
  ]
}
